The list shows a part of the results. The data scatter; read single values as rough.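 Many melting curves are irregular; where none melted, Tm was taken as 64 °C.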
Compound: CCc1cnccc1C(=O)Nc1cc2c(cc1F)NC(=O)CC2
Assay: melting temperature shift (DMSO Tm minus MBE1-treated Tm) in cellular thermal proteome profiling; higher = less thermal stabilization by MBE1 (negative = stabilized by MBE1)
Settings: A375

By UniProt entry, the sequences of proteins in these tests, tags left out. Where a name states a change or a piece, a line headed by the entry shows the natural chain unless it says otherwise.
UniProt Q9BRQ8: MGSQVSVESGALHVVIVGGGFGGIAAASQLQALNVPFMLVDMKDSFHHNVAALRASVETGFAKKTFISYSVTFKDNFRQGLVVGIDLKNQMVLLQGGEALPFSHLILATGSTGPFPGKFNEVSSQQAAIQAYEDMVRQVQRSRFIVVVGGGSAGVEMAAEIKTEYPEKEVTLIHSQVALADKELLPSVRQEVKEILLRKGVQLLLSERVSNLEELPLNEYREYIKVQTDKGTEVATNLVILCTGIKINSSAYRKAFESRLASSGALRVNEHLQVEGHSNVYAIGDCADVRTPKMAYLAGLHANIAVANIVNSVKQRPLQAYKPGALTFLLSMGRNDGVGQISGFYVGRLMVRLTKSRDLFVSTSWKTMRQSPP
UniProt Q9BTC8: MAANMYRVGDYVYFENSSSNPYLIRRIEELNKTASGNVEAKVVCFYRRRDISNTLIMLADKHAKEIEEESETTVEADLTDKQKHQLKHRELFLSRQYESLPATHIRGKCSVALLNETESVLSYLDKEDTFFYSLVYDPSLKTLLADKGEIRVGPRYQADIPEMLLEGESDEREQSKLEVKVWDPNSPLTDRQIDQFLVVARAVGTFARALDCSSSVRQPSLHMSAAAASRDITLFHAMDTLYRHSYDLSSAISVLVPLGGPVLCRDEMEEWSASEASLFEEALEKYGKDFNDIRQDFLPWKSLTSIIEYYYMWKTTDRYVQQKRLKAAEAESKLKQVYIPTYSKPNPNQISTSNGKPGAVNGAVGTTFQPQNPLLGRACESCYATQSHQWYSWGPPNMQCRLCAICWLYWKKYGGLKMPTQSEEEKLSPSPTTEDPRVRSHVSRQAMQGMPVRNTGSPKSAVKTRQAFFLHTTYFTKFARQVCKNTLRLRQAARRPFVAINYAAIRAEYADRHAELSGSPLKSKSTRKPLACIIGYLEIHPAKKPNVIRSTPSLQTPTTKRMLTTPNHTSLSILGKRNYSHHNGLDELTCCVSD
UniProt Q9BV44: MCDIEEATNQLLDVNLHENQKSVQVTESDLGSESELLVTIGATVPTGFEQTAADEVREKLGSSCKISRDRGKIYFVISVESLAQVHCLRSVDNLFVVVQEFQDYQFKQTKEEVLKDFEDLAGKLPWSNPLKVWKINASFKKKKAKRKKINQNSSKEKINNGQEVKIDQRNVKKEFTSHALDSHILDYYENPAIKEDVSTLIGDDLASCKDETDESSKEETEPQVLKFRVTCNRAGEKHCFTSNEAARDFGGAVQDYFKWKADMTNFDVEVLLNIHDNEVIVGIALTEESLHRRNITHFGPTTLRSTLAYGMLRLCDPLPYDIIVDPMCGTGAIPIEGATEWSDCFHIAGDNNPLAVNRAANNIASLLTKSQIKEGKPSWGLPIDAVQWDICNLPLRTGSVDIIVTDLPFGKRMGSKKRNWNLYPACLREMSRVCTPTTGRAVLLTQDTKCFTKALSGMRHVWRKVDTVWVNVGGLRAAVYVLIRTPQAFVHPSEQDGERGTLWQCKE
UniProt Q9BUT1: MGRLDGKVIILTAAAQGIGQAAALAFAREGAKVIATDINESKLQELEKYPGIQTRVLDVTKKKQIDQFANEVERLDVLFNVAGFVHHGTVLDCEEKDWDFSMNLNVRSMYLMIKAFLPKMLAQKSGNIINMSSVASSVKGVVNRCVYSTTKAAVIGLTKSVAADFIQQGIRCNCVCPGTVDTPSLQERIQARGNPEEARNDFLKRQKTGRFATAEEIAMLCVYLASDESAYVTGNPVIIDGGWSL
UniProt Q9BRR8: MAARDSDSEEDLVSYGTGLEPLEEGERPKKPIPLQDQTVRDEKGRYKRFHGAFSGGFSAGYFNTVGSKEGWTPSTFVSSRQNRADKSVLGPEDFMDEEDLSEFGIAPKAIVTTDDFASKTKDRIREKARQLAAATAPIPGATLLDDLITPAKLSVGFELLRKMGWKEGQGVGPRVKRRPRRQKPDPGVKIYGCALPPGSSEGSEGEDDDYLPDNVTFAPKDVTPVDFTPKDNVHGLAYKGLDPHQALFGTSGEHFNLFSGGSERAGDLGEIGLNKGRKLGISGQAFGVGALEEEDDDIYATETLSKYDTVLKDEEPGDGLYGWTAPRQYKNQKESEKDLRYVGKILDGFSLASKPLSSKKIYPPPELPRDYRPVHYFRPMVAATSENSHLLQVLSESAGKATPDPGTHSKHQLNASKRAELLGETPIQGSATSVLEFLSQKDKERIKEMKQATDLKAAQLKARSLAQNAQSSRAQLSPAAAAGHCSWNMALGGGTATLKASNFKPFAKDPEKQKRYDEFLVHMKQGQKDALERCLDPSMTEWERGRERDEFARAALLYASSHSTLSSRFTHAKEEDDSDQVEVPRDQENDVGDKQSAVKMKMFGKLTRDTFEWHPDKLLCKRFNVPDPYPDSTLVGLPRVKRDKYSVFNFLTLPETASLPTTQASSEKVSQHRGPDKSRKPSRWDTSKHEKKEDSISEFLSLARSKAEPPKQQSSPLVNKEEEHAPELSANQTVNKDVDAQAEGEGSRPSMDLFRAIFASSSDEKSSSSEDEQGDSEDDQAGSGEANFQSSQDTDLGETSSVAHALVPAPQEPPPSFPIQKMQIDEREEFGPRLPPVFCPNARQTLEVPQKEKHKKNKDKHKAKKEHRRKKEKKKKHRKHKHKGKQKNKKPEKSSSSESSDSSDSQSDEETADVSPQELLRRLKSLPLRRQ
UniProt Q9BRX5: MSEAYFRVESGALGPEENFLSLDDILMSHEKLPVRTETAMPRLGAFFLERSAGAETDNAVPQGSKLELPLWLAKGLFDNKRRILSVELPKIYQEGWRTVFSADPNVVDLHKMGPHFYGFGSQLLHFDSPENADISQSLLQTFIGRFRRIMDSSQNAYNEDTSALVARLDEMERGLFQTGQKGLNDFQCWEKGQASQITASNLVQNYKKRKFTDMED
UniProt Q9BUF5, whole entry: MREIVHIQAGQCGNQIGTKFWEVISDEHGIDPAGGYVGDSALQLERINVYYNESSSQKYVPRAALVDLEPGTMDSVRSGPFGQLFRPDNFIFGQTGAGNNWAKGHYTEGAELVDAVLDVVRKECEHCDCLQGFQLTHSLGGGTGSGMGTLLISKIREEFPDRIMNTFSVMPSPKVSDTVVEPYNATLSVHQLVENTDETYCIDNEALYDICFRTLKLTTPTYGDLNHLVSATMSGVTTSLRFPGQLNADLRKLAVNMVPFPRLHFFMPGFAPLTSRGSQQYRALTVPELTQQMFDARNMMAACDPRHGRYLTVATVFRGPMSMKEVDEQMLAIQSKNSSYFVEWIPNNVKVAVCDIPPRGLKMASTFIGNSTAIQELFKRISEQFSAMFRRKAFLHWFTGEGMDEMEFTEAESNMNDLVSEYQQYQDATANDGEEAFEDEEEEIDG
UniProt Q99747: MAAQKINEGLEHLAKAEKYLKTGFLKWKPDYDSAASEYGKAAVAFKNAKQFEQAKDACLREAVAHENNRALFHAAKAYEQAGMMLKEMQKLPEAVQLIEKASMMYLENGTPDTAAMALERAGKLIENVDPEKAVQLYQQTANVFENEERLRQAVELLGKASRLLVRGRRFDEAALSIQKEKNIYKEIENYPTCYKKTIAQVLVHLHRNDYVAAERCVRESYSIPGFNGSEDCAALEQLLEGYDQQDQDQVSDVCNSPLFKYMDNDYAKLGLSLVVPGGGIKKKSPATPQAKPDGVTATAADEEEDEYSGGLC
UniProt Q9BXV9: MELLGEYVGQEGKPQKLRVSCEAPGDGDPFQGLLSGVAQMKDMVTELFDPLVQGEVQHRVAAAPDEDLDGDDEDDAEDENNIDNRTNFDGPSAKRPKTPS
UniProt Q9BT73: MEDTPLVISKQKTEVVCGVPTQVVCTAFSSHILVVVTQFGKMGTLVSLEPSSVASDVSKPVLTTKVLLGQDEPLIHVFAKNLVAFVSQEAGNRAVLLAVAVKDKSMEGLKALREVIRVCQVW
UniProt Q9BR61: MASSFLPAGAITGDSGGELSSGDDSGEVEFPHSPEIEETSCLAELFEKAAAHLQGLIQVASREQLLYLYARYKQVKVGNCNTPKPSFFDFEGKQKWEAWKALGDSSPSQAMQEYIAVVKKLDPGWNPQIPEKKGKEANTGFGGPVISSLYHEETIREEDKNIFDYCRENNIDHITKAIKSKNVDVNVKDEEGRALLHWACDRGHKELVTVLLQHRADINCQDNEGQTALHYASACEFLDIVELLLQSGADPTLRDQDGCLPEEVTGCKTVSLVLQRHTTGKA
UniProt Q9BQ04: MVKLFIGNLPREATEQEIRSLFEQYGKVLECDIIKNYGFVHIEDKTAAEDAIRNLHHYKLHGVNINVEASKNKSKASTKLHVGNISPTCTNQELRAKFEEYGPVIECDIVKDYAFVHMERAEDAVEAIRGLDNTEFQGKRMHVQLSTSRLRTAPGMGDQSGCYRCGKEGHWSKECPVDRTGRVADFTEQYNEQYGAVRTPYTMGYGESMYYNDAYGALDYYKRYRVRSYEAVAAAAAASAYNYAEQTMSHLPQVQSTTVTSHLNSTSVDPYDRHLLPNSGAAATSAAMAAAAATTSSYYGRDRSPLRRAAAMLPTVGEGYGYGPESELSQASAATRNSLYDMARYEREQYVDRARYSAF
UniProt Q9BST9: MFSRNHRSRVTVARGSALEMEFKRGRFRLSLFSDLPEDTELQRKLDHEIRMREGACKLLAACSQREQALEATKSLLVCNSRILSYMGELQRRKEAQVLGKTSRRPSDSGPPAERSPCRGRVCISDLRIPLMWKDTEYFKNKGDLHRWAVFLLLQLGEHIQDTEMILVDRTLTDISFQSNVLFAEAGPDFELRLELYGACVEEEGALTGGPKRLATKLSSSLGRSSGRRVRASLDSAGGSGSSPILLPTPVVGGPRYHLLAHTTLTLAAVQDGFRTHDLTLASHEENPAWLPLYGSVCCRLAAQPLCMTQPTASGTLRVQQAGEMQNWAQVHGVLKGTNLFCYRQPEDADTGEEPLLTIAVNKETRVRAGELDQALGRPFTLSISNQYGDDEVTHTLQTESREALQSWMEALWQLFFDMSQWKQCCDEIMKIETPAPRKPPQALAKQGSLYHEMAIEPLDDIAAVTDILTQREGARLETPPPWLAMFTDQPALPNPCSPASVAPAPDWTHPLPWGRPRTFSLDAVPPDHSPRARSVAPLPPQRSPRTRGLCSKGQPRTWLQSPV
UniProt Q9BXB5: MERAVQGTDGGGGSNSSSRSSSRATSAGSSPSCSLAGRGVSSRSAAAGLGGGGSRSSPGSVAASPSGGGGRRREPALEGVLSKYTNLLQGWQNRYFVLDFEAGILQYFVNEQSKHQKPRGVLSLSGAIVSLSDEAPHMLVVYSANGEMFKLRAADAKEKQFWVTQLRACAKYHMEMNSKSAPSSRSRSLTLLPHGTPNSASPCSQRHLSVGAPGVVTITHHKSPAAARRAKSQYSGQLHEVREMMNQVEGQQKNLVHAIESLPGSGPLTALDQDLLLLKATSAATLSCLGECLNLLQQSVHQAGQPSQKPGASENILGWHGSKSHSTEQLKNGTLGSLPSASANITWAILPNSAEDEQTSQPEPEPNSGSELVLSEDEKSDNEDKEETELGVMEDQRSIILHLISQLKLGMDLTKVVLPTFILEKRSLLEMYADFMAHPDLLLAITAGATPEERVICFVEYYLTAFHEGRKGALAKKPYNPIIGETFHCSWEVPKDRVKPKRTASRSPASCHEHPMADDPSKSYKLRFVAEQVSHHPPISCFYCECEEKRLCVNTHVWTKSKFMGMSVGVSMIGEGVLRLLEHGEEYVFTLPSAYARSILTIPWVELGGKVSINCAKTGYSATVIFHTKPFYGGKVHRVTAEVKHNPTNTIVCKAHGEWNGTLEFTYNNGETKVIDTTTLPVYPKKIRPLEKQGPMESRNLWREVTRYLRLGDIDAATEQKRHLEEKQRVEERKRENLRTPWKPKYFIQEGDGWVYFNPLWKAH
UniProt Q9BRX9: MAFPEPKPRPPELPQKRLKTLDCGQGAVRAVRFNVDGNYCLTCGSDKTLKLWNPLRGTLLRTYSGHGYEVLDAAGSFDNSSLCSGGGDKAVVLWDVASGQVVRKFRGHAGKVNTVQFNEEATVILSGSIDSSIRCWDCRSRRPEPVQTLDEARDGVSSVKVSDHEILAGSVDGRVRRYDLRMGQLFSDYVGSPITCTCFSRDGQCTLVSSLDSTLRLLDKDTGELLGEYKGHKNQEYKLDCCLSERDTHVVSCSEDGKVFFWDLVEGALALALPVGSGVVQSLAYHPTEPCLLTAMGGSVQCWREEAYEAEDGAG
UniProt Q9BQE5: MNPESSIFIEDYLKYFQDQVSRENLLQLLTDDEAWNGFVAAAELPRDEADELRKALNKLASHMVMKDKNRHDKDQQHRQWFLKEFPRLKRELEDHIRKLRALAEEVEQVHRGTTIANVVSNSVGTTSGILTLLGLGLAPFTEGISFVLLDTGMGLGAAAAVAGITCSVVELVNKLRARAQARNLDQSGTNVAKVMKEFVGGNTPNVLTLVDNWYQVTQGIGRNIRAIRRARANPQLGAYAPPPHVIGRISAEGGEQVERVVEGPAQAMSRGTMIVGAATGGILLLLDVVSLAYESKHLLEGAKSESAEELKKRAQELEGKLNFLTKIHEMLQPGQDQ

UniProt Q9BRK0
melting temperature shift (MBE1 concentration: 100 nM): -1.38 °C
melting temperature shift (MBE1 concentration: 1 uM): -2.31 °C

CHID1 (UniProt Q9BWS9)
melting temperature shift (MBE1 concentration: 100 nM): -1.23 °C
melting temperature shift (MBE1 concentration: 1 uM): 0.323 °C

AIFM2 (UniProt Q9BRQ8)
melting temperature shift (MBE1 concentration: 100 nM): -0.805 °C
melting temperature shift (MBE1 concentration: 1 uM): 0.436 °C

AIF1L (UniProt Q9BQI0)
melting temperature shift (MBE1 concentration: 100 nM): -2.06 °C
melting temperature shift (MBE1 concentration: 1 uM): -1.25 °C

DHRS4 (UniProt Q9BTZ2)
melting temperature shift (MBE1 concentration: 100 nM): -0.659 °C
melting temperature shift (MBE1 concentration: 1 uM): 1.62 °C

MTA3 (UniProt Q9BTC8)
melting temperature shift (MBE1 concentration: 100 nM): -0.614 °C
melting temperature shift (MBE1 concentration: 1 uM): -0.421 °C

THUMPD3 (UniProt Q9BV44)
melting temperature shift (MBE1 concentration: 100 nM): -0.812 °C
melting temperature shift (MBE1 concentration: 1 uM): -0.241 °C

TMED9 (UniProt Q9BVK6)
melting temperature shift (MBE1 concentration: 100 nM): -1.66 °C
melting temperature shift (MBE1 concentration: 1 uM): -1.02 °C

BDH2 (UniProt Q9BUT1)
melting temperature shift (MBE1 concentration: 100 nM): -0.91 °C
melting temperature shift (MBE1 concentration: 1 uM): -0.415 °C

SH3GL2 (UniProt Q99962)
melting temperature shift (MBE1 concentration: 100 nM): 0.442 °C
melting temperature shift (MBE1 concentration: 1 uM): 4.85 °C

UniProt Q9BRR8
melting temperature shift (MBE1 concentration: 100 nM): 2.32 °C
melting temperature shift (MBE1 concentration: 1 uM): 0.983 °C

GINS3 (UniProt Q9BRX5)
melting temperature shift (MBE1 concentration: 100 nM): -0.147 °C
melting temperature shift (MBE1 concentration: 1 uM): 0.00611 °C

UniProt Q9BRK4
melting temperature shift (MBE1 concentration: 100 nM): -0.488 °C
melting temperature shift (MBE1 concentration: 1 uM): 1.43 °C

TUBB6 (UniProt Q9BUF5)
melting temperature shift (MBE1 concentration: 100 nM): -1.26 °C
melting temperature shift (MBE1 concentration: 1 uM): 0.44 °C

NAPG (UniProt Q99747)
melting temperature shift (MBE1 concentration: 100 nM): -0.574 °C
melting temperature shift (MBE1 concentration: 1 uM): -0.315 °C

UniProt Q9BXV9
melting temperature shift (MBE1 concentration: 100 nM): -3.7 °C
melting temperature shift (MBE1 concentration: 1 uM): 0.421 °C

PSMG3 (UniProt Q9BT73)
melting temperature shift (MBE1 concentration: 100 nM): -4.44 °C
melting temperature shift (MBE1 concentration: 1 uM): 2.1 °C

FYCO1 (UniProt Q9BQS8)
melting temperature shift (MBE1 concentration: 100 nM): 0.879 °C
melting temperature shift (MBE1 concentration: 1 uM): 0.678 °C

ACBD6 (UniProt Q9BR61)
melting temperature shift (MBE1 concentration: 100 nM): -0.416 °C
melting temperature shift (MBE1 concentration: 1 uM): -0.759 °C

UniProt Q9BQ04
melting temperature shift (MBE1 concentration: 100 nM): -0.502 °C
melting temperature shift (MBE1 concentration: 1 uM): -0.365 °C

RTKN (UniProt Q9BST9)
melting temperature shift (MBE1 concentration: 100 nM): -0.723 °C
melting temperature shift (MBE1 concentration: 1 uM): -0.823 °C

OSBPL10 (UniProt Q9BXB5)
melting temperature shift (MBE1 concentration: 100 nM): -0.936 °C
melting temperature shift (MBE1 concentration: 1 uM): -0.339 °C

UniProt Q9BRX9
melting temperature shift (MBE1 concentration: 100 nM): 0.725 °C
melting temperature shift (MBE1 concentration: 1 uM): -0.171 °C

APOL2 (UniProt Q9BQE5)
melting temperature shift (MBE1 concentration: 100 nM): 0.207 °C
melting temperature shift (MBE1 concentration: 1 uM): -0.427 °C

CCDC94 (UniProt Q9BW85)
melting temperature shift (MBE1 concentration: 100 nM): -0.49 °C
melting temperature shift (MBE1 concentration: 1 uM): -0.0122 °C
